The values that follow come from paper PMC10653806.

Sequences of proteins named here, by UniProt entry; tags and fusion partners are left off.
UniProt P38432: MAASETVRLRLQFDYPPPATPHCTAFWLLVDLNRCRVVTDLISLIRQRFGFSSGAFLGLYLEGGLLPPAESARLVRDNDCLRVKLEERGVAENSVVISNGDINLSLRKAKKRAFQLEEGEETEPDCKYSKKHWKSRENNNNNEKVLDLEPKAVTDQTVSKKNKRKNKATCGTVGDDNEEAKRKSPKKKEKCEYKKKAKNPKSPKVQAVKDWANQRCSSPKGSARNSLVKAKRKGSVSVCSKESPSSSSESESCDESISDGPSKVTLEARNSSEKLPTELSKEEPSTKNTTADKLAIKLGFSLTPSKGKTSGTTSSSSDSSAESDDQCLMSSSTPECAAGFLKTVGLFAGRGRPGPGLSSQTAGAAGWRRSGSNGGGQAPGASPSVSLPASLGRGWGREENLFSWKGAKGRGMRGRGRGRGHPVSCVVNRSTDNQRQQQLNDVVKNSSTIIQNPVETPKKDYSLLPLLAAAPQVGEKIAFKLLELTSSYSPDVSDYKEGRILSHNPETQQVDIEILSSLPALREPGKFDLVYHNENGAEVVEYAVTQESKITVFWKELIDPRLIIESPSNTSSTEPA

No constants are given. Whether binding was seen depends on the method and setting. Binding seen in cells or lysates may run through a third protein. Tags and fused reporters may be left off the sequences shown.

The target of assay [1] is T1, FLAG-tagged L4-33K (human adenovirus 5) (UniProt P24940).
T1 sequence: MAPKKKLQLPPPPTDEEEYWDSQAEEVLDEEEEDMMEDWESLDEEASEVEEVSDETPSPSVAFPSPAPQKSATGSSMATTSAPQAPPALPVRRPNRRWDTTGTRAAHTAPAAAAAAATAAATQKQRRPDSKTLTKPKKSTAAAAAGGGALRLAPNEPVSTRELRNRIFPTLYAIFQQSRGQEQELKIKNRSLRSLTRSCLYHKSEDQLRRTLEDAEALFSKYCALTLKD
Put plainly: co-IP; lysates of 293T cells co-transfected with Myc-tagged p80-coilin and Flag-tagged 22K or 33K plasmids; […] Fab-Trap Agarose or Myc-Trap Agarose beads; Western blot with anti-myc or anti-FLAG. (In general: Immunoblotting shows a protein as a band on a membrane.)

Assay [2] concerns the target Myc-tagged human p80-coilin (human) (UniProt P38432). The description is as above.

As for “Myc-tagged human p80-coilin (from UniProt P38432 1-576)”, in assay [1], the binding entry is “no binding”.

B1: FLAG-tagged L4-33K (protein, UniProt P24940 1-229)
chain: T1 sequence
Regarding B1, the binding result in assay [2] is “no binding”.
